According to patent US5405831A, “Treatment of bone disorders” (Amylin Pharmaceuticals, Inc., priority 1989, dated 1995):
“Also recorded” adds a separate entry of the source. Part of at least one peptide drawing is inferred or uncertain, most often the ends.

Assays:
isolated osteoclasts = assay: functional responses of isolated osteoclasts (motility, cytosolic calcium, retraction); format: cell-based
Excerpt: Thus, it appears that osteoclast activity may be restrained via two receptor types; calcitonin acts at both while amylin acts mainly via only one, reducing motility, reducing resorption and probably acting via the second messenger cAMP (Zaidi et. al. 1990, J. Endocrinol 126, 473-481.

rat osteoclasts [1] = assay: bone resorption assay (disaggregated rat osteoclasts on human cortical bone slices)
[2] = test system: human patients with Paget's disease; assay: intravenous infusion into human patients with Paget's disease, plasma calcium; format: in vivo
50 g male Wistar rats = assay: in vivo rat hypocalcaemia assay (plasma calcium after intravenous injection)
adult rabbits = assay: continuous infusion into rabbits, plasma calcium levels; format: in vivo, rabbit
rat osteoclasts [3] = details: peptides not all compared in the same assay; MacIntyre, Lancet 1989; cited from earlier work
[4] = rabbits, infusion 500 pmol per minute over 90 minutes

CC[C@H](C)[C@H](NC(=O)[C@H](C)NC(=O)CNC(=O)[C@H](Cc1ccccc1)NC(=O)[C@H](CC(N)=O)NC(=O)[C@H](CC(N)=O)NC(=O)[C@H](CO)NC(=O)[C@H](CO)NC(=O)[C@H](Cc1c[nH]cn1)NC(=O)[C@@H](NC(=O)[C@H](CC(C)C)NC(=O)[C@H](Cc1ccccc1)NC(=O)[C@H](CC(N)=O)NC(=O)[C@H](C)NC(=O)[C@H](CC(C)C)NC(=O)[C@H](CCCNC(=N)N)NC(=O)[C@H](CCC(N)=O)NC(=O)[C@@H](NC(=O)[C@H](C)NC(=O)[C@@H]1CSSC[C@H](NC(=O)[C@@H](N)CCCCN)C(=O)N[C@@H](CC(N)=O)C(=O)N[C@@H]([C@@H](C)O)C(=O)N[C@@H](C)C(=O)N[C@@H]([C@@H](C)O)C(=O)N1)[C@@H](C)O)C(C)C)C(=O)N[C@@H](CC(C)C)C(=O)N[C@@H](CO)C(=O)N[C@@H](CO)C(=O)N[C@H](C(=O)N[C@@H](CC(N)=O)C(=O)N[C@H](C(=O)NCC(=O)N[C@@H](CO)C(=O)N[C@@H](CC(N)=O)C(=O)N[C@H](C(=O)N[C@@H](Cc1ccc(O)cc1)C(N)=O)[C@@H](C)O)C(C)C)[C@@H](C)O [amylin]
cell retraction (isolated osteoclasts): evoked neither of these responses
cytosolic calcium (isolated osteoclasts): evoked neither of these responses
osteoclast motility (isolated osteoclasts): inhibited osteoclast motility
total area of bone resorbed by isolated osteoclasts (rat osteoclasts [1]; 18 hours incubation, concentration-dependent): reduced the osteoclastic resorption of bone in a dose-dependent fashion; also recorded: marked reduction
potency relative to CGRP (rat osteoclasts [1]; peptides not all compared in the same assay): more potent than CGRP
potency relative to human calcitonin (fold less potent) (rat osteoclasts [1]; studies on rat osteoclasts): 10-30 fold
potency relative to human calcitonin [2]: comparably potent to human calcitonin
effect on plasma calcium (50 g male Wistar rats; 50 g rats, intravenous injection, 500 pmol): marked hypocalcaemia
responses relative to calcitonin and CGRP (50 g male Wistar rats; hypocalcaemic and anti-resorptive activity, order asu1-7-eel CT>human CT>amylin/amylin amide>CGRP): less than for calcitonin, but significantly greater than those observed with CGRP
plasma calcium level after amylin (50 g male Wistar rats; young wistar rats, reduced from 2.5 nM): 2.05 nM
plasma calcium level after amylin (adult rabbits; adult rabbits, reduced from 2.8): 2.4 nM
time until a trend of plasma calcium lowering was apparent (adult rabbits; rabbits, infusion 500 pmol per minute): ≤ 30 min
effect on plasma calcium (adult rabbits; [4]): marked lowering of plasma calcium
time calcium levels continued to fall after the end of the infusion (adult rabbits; [4]): 30 min
potency relative to human calcitonin (rat osteoclasts [3]): less potent than human calcitonin by about an order of magnitude
